Results taken from the supplement of paper PMC10849652.
The list shows a part of the results.

Chains of the proteins cited; added tags and fusions are not shown. Lines headed by an entry give the natural chain unless they say otherwise; changes in a name come on top.
UniProt P78345: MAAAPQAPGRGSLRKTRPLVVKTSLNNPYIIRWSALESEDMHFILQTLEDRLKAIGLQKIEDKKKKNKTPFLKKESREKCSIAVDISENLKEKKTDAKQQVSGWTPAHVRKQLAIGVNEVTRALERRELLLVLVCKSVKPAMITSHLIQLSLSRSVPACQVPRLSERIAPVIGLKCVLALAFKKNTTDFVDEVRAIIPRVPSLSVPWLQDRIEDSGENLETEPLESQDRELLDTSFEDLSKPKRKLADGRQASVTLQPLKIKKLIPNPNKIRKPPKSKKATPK
UniProt O60942: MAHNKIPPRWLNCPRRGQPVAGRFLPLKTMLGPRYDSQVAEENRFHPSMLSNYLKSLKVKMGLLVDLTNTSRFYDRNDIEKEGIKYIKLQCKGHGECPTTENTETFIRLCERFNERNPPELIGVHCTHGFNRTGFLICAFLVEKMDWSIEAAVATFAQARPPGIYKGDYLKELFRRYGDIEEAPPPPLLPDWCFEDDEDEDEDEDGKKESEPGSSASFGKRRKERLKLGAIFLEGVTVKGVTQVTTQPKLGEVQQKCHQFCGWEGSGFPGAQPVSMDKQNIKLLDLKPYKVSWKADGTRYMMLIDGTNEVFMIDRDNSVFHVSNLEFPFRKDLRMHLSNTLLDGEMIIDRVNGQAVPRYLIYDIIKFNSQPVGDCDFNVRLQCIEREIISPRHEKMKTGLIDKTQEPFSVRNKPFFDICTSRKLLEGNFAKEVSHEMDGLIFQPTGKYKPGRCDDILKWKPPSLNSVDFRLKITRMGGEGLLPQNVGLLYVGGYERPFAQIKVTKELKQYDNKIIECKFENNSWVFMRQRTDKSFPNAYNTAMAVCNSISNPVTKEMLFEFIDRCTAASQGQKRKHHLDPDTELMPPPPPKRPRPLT
UniProt Q15287: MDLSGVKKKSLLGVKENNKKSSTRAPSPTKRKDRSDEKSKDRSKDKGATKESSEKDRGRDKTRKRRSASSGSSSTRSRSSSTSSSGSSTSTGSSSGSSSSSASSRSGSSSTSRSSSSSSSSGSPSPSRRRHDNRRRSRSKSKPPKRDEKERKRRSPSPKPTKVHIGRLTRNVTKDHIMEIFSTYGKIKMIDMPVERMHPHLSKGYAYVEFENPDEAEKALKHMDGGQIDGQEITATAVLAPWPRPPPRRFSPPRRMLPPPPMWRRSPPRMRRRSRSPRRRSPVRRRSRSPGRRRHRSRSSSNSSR
UniProt O43148, whole entry, looked up: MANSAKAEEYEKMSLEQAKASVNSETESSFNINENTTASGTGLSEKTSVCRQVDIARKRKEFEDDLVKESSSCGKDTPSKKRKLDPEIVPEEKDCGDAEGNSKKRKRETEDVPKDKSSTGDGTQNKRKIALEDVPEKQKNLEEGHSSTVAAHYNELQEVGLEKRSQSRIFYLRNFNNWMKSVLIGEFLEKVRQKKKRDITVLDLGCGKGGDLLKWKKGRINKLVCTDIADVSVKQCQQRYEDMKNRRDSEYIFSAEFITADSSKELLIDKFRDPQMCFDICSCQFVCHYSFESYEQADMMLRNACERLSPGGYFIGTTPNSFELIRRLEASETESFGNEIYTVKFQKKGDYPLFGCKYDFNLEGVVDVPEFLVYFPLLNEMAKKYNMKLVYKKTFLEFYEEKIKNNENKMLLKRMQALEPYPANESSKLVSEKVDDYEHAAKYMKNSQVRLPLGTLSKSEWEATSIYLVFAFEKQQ
UniProt Q15349, whole entry, looked up: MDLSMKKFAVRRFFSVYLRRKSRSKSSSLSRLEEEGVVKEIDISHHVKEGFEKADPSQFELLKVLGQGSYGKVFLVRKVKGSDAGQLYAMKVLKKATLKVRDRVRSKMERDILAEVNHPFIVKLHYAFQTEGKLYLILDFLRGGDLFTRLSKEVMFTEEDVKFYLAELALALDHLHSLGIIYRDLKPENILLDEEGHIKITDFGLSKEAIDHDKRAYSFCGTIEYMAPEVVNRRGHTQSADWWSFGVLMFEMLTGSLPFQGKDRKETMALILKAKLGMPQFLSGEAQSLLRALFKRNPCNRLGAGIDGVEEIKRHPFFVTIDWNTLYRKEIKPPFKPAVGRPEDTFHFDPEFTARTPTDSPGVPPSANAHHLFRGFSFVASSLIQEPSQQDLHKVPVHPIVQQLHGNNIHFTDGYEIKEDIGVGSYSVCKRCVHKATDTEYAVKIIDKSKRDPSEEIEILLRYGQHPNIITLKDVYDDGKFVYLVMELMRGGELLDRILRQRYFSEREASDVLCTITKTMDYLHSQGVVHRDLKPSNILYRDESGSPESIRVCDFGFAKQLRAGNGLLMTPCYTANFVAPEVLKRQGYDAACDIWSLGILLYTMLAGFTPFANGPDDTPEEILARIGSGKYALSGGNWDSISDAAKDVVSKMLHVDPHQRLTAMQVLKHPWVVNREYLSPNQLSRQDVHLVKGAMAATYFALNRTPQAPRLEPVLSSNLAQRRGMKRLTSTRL
UniProt O95059: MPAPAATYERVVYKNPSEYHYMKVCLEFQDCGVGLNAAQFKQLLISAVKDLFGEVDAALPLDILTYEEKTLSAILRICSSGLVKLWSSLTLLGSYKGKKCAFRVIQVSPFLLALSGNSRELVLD
UniProt Q8IZ73: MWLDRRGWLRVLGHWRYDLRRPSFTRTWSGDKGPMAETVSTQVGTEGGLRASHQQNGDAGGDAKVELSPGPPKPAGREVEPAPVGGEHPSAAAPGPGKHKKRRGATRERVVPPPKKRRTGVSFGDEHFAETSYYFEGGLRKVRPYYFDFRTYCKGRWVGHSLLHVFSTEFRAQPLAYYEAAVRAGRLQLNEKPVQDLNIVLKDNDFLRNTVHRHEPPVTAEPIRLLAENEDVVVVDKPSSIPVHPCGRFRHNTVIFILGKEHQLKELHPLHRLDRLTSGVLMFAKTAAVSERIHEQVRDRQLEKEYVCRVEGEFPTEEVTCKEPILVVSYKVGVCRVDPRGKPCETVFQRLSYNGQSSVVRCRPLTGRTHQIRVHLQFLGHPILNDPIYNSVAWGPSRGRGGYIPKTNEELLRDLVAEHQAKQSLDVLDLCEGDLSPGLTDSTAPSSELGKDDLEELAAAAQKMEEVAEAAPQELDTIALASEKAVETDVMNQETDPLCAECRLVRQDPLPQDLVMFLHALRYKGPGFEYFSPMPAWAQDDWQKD
UniProt Q8N5L8: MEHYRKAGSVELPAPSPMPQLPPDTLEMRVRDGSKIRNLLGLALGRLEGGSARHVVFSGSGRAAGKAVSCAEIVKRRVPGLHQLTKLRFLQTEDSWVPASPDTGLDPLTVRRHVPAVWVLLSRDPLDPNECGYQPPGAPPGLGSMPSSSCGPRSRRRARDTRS
UniProt P51812, whole entry, looked up: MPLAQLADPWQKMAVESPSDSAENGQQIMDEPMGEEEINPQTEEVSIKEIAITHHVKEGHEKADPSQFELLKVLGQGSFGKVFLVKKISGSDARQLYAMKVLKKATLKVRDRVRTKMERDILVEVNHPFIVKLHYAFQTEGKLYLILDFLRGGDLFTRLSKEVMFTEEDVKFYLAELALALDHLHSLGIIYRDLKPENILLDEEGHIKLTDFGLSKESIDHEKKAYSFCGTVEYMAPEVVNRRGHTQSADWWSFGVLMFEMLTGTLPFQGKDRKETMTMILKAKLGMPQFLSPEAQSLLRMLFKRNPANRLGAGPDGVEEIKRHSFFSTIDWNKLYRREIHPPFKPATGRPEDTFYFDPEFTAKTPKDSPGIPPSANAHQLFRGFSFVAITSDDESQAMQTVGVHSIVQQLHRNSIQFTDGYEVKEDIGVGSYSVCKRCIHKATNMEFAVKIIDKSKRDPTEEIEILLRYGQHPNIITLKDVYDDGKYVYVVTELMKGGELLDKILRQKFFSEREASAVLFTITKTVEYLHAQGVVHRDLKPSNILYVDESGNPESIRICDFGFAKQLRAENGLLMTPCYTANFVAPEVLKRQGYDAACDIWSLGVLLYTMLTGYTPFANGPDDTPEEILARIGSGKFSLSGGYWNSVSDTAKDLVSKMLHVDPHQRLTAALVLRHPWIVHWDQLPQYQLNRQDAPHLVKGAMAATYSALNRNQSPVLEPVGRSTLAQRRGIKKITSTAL
UniProt Q9H633: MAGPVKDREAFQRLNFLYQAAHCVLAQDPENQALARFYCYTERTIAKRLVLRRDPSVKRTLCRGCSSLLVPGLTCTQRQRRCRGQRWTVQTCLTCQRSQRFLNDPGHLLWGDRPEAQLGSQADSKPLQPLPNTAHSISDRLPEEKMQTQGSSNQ
UniProt P15927: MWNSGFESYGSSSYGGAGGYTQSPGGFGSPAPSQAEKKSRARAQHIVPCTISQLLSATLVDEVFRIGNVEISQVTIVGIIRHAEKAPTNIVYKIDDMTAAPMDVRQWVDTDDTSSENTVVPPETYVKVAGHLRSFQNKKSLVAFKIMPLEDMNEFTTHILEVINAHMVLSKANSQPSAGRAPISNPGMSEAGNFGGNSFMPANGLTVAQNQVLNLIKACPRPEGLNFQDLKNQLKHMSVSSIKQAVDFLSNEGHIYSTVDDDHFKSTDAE
UniProt O75116: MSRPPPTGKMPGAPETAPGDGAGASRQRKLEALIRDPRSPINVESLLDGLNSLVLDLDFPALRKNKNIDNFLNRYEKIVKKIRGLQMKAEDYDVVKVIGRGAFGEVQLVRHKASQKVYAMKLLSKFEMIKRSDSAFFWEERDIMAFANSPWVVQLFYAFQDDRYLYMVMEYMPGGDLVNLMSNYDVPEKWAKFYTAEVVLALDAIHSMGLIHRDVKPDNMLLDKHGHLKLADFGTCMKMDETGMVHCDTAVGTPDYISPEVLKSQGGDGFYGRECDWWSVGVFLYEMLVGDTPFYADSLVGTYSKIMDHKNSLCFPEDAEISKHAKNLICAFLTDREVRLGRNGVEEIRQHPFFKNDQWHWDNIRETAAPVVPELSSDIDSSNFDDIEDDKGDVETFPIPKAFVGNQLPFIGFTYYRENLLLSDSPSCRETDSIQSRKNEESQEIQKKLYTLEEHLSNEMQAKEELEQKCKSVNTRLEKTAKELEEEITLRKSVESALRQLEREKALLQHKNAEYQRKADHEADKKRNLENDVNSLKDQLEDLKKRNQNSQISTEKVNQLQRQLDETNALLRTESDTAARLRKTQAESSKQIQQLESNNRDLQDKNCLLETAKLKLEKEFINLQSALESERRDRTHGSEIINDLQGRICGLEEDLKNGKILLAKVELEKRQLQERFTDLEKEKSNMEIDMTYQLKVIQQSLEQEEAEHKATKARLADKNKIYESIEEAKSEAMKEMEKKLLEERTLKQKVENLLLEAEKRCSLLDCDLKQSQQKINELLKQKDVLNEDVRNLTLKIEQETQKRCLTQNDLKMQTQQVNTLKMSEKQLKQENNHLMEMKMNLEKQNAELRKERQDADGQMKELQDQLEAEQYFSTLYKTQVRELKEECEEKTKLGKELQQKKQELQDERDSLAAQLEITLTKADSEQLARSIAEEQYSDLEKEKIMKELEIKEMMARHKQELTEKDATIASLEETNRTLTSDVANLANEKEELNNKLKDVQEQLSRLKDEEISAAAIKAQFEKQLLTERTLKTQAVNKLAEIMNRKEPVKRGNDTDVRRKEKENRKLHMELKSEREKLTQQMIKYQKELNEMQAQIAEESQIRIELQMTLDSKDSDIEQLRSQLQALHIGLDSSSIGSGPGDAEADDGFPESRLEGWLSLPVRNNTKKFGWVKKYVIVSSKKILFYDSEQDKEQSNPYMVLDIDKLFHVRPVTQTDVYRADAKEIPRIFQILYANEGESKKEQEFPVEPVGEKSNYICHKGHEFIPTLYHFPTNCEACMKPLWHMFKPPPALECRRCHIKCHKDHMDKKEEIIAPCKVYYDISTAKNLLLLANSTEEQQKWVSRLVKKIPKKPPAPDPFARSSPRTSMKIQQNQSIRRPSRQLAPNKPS

Legend:
Experiment in all cases: log2 fold change, soluble protein after heating vs DMSO (PISA); higher = thermal stabilisation; K562 cells, 10 uM, 30 min; active = over 0.2 and 3.5 SD of the protein, either way, in both replicates (recomputed)
[1] = compound: C1=CC=C(C=C1)[C@H](COC2=CC3=C(C=C2)NC(=O)N3)NC(=O)C4=CC=CN(C4=O)CC5=CC(=C(C=C5)F)F
Procedure, shortened: (§1)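 For each measurement, 10 μM compound was applied for 30 min to K562 cells at 2×10^6 cells/mL. Aliquots were heated for 3 min across 48°C-58°C, pooled, and extracted in PBS with 0.5% NP-40 at 4°C; the supernatant after 21,000xg for 90 min was soluble protein. This was quantified by TMTpro 16plex LC-MS/MS with channel sums equalised, and thermal stability was reported relative to control samples from duplicates, on a log2 fold-change scale.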

[2] = compound: CC1=C(SC2=C1C(=N[C@H](C3=NN=C(N32)C)CC(=O)N)C4=CC=C(C=C4)Cl)C
Procedure, shortened: as §1

[3] = compound: CC1=C2C(=CC=C1)N=C(N(C2=O)C3=CC=CC=C3C)CN4C=NC5=C(N=CN=C54)N
Procedure, shortened: as §1

[4] = compound: Cc1sc2c(c1C)C(c1ccc(Cl)cc1)=N[C@@H](CC(=O)OC(C)(C)C)c1nnc(C)n1-2
Procedure, shortened: as §1

[5] = compound: c1ccc([C@@H]2C[C@H]2NC2CCNCC2)cc1
Procedure, shortened: as §1

Measured: log2 fold change

RPL36 (UniProt Q9Y3U8)
inactive: [1] 0.226 | [2] -0.461 | [3] -0.605 | [4] 0.295 | [5] -0.001

RPL32 (UniProt P62910)
inactive: [1] 0.197 | [2] -0.439 | [3] -0.556 | [4] 0.249 | [5] -0.002

RPL11 (UniProt P62913)
inactive: [1] 0.204 | [2] -0.457 | [3] -0.487 | [4] 0.316 | [5] -0.001

RPL29 (UniProt P47914)
inactive: [1] 0.22 | [2] -0.517 | [3] -0.579 | [4] 0.239 | [5] 0

RPL12 (UniProt P30050)
inactive: [1] 0.23 | [2] -0.517 | [3] -0.382 | [4] 0.268 | [5] 0

RPP38 (UniProt P78345)
inactive: [1] -0.008 | [2] -0.039 | [3] 0.028 | [4] 0.044 | [5] 0.046

RPS15 (UniProt P62841)
inactive: [1] 0.126 | [2] -0.113 | [3] -0.02 | [4] 0.122 | [5] 0.106

RNGTT (UniProt O60942)
inactive: [1] -0.055 | [2] 0.148 | [3] 0.085 | [4] -0.048 | [5] 0.004

RNPS1 (UniProt Q15287)
inactive: [1] -0.019 | [2] 0.001 | [3] 0.032 | [4] 0.119 | [5] 0.061

RNMT isoform 2 (UniProt O43148)
inactive: [1] 0.064 | [2] -0.021 | [3] 0.017 | [4] 0.032 | [5] 0.059

RPL9 (UniProt P32969)
inactive: [1] 0.159 | [2] -0.491 | [3] -0.585 | [4] 0.322 | [5] -0.005

RPS6KA2 isoform 2 (UniProt Q15349)
inactive: [1] -0.016 | [2] 0.045 | [3] 0.087 | [4] -0.015 | [5] -0.02

RPL21 (UniProt P46778)
inactive: [1] 0.277 | [2] -0.597 | [3] -0.71 | [4] 0.373 | [5] 0.006

RPL13A (UniProt P40429)
inactive: [1] 0.204 | [2] -0.54 | [3] -0.741 | [4] 0.335 | [5] 0

RPL5 (UniProt P46777)
inactive: [1] 0.071 | [2] -0.234 | [3] -0.195 | [4] 0.115 | [5] 0

RPP14 (UniProt O95059)
inactive: [1] 0.044 | [2] -0.023 | [3] -0.028 | [4] 0.002 | [5] -0.009

RPUSD2 (UniProt Q8IZ73)
inactive: [1] 0.013 | [2] 0.002 | [3] -0.001 | [4] 0.011 | [5] 0.004

RPP25L (UniProt Q8N5L8)
inactive: [1] 0.032 | [2] -0.018 | [3] 0.026 | [4] 0.143 | [5] 0.033

RPS6KA3 (UniProt P51812)
inactive: [1] -0.044 | [2] 0.05 | [3] 0.036 | [4] -0.034 | [5] -0.006

RPP21 isoform 4 (UniProt Q9H633)
inactive: [1] -0.004 | [2] 0.099 | [3] 0.099 | [4] 0.037 | [5] -0.054

RPS27A (UniProt P62979)
inactive: [1] 0.076 | [2] -0.111 | [3] -0.281 | [4] 0.108 | [5] -0.025

RPA2 isoform 3 (UniProt P15927)
inactive: [1] 0 | [2] 0.083 | [3] 0.045 | [4] 0.022 | [5] 0.008

RPL35 (UniProt P42766)
inactive: [1] 0.203 | [2] -0.358 | [3] -0.356 | [4] 0.294 | [5] 0

ROCK2 (UniProt O75116)
inactive: [1] -0.026 | [2] 0.003 | [3] 0.085 | [4] 0.024 | [5] -0.01
